Here are results for 7 molecules from the odorant receptor screen of Mainland et al. (2015).

“And” between values parts separate entries of the source, which are not always exact repeats. Identical values can stand only once. The list shows a part of the results. Each value is one well over the wells without odorant, computed here; the data are noisy.

Test systems include OR52B2 clone 1210; OR52B4 clone 1508; OR52D1 clone 1164; OR52E1 clone 1113; OR52E5 P234L clone 1124; OR52E6 clone 1196; OR52E8 clone 1154; OR52H1 clone 1702; OR52I1 clone 1521; OR52I2 T132M clone 1324; OR52K1 clone 1163; OR52K2 clone 1211; OR52L2 R169W clone 1117; OR52M1 clone 1143; OR52N1 clone 1191; OR52N2 M228T clone 1569.
Common to all, as to test: odorant receptor activation (CRE luciferase / Renilla) (fold of no-odor wells); higher = more activation
Holding throughout (settings): 100 µM

The test system of assay [1] is OR52B6 T36A/L90H/A146T/H149R/V267I clone 1306.
Assay [2] has as its system OR52E2 H174R/R264C clone 1184.
In assay [3] the test system is OR52E4 V176I/R184M/R228H clone 1123.
The test system of assay [4] is OR52L1 D73N/C125R/C146R/K168T/W282R clone 1116.

Consider `CCCCCCOC(=O)CCC` [hexyl butyrate], for which the odorant receptor activation in the assay with OR52B2 clone 1210 was 1.23; in the assay with OR52B4 clone 1508, 0.574 and 0.988; in [1], 0.986 and 1.02; in the assay on OR52D1 clone 1164 it was 1.06; in the assay on OR52E1 clone 1113, 0.398; in assay [2] it was 1.01. For the same molecule, the odorant receptor activation in assay [3] was 1.24; in the assay on OR52E5 P234L clone 1124, 1.23; in the assay with OR52E6 clone 1196, 1.15; with OR52E8 clone 1154, 1.09; with OR52H1 clone 1702, 1.03; in the assay on OR52I1 clone 1521 it was 1.12 and 1.03. In addition, the odorant receptor activation in the assay on OR52I2 T132M clone 1324 was 1.06 and 0.907; with OR52K1 clone 1163 it was 1.16; in the assay with OR52K2 clone 1211 it was 1.27; in assay [4], 0.706; with OR52L2 R169W clone 1117, 1.34; with OR52M1 clone 1143, 0.885. Moreover, the odorant receptor activation worked out at 1.04 with OR52N1 clone 1191 and 0.78 in the assay on OR52N2 M228T clone 1569.
Take `CC=Cc1ccc(O)c(OC)c1` [isoeugenol]: the odorant receptor activation in the assay with OR52B2 clone 1210 was 2.11; in the assay on OR52B4 clone 1508, 0.976 and 2.57; in [1], 1.13 and 1.36; in the assay with OR52D1 clone 1164 it was 0.924; with OR52E1 clone 1113, 0.592; in [2], 1.74. For the same molecule, the odorant receptor activation in assay [3] is 5.03; with OR52E5 P234L clone 1124, 3.99; with OR52E6 clone 1196 it was 1; in the assay with OR52E8 clone 1154, 0.865; with OR52H1 clone 1702 it was 1.92; with OR52I1 clone 1521, 1.06 and 2.19. In addition, the odorant receptor activation in the assay with OR52I2 T132M clone 1324 was 1.16 and 1.36; with OR52K1 clone 1163, 1.18; in the assay on OR52K2 clone 1211, 1.14; in [4], 0.618; in the assay on OR52L2 R169W clone 1117 it was 2.31; in the assay on OR52M1 clone 1143, 1.15. For the same molecule, the values for the odorant receptor activation in the assay with OR52N1 clone 1191 and in the assay on OR52N2 M228T clone 1569 were 0.931 and 4.91, respectively.
As for `CCCCCCCCOC(C)=O` [octyl acetate], the odorant receptor activation is 0.756 in the assay on OR52B2 clone 1210; 0.976 in the assay with OR52B4 clone 1508; 0.202 in [1]; 0.931 with OR52D1 clone 1164; 1.02 with OR52E1 clone 1113; 1.01 in assay [2]. Moreover, the odorant receptor activation in assay [3] was 1.06; with OR52E5 P234L clone 1124 it was 0.736; in the assay on OR52E6 clone 1196 it was 1.07; in the assay on OR52E8 clone 1154 it was 0.86; with OR52H1 clone 1702, 1.11; with OR52I1 clone 1521, 0.866. Further, the odorant receptor activation in the assay on OR52I2 T132M clone 1324 was 1.25; in the assay on OR52K1 clone 1163, 0.918; with OR52K2 clone 1211, 1.17; in assay [4], 1.32; in the assay with OR52L2 R169W clone 1117, 1.08; in the assay on OR52M1 clone 1143, 1.03. Moreover, the odorant receptor activation with OR52N1 clone 1191 is 1.03; with OR52N2 M228T clone 1569 it was 0.662.
As for `c1ccc(Oc2ccccc2)cc1` [diphenyl ether], the odorant receptor activation in the assay on OR52B2 clone 1210 was 0.978; in the assay with OR52B4 clone 1508 it was 1.32; in [1], 0.923; in the assay on OR52D1 clone 1164 it was 0.995; in the assay with OR52E1 clone 1113, 0.845; in [2] it was 0.856. For the same molecule, the odorant receptor activation in [3] was found to be 0.866; with OR52E5 P234L clone 1124 it was 1.16; in the assay on OR52E6 clone 1196 it was 0.957; with OR52E8 clone 1154, 0.973; in the assay with OR52H1 clone 1702 it was 0.674; in the assay on OR52I1 clone 1521 it was 1.28. The odorant receptor activation turned out to be 1.13 in the assay on OR52I2 T132M clone 1324; 0.993 in the assay on OR52K1 clone 1163; 1.02 with OR52K2 clone 1211; 1.01 in assay [4]; 1.03 in the assay on OR52L2 R169W clone 1117; 1.13 with OR52M1 clone 1143. Further, the figures for the odorant receptor activation with OR52N1 clone 1191 and with OR52N2 M228T clone 1569 were 0.939 and 0.799, respectively.
For the molecule `O=C1CCCCCCCCCCCCCCO1` [pentadecalactone], the odorant receptor activation was 0.749 in the assay with OR52B2 clone 1210; 0.898 with OR52B4 clone 1508; 0.968 in assay [1]; 0.904 with OR52D1 clone 1164; 0.748 in the assay with OR52E1 clone 1113; 0.753 in assay [2]. Moreover, the odorant receptor activation in assay [3] stood at 1; with OR52E5 P234L clone 1124 it was 0.718; with OR52E6 clone 1196, 0.829; in the assay on OR52E8 clone 1154, 0.797; with OR52H1 clone 1702 it was 0.866; in the assay on OR52I1 clone 1521, 1.06. In addition, the odorant receptor activation is 0.903 in the assay with OR52I2 T132M clone 1324; 0.794 with OR52K1 clone 1163; 0.835 with OR52K2 clone 1211; 0.859 in assay [4]; 0.773 with OR52L2 R169W clone 1117; 0.763 in the assay with OR52M1 clone 1143. Moreover, the odorant receptor activation in the assay with OR52N1 clone 1191 was determined as 0.643; with OR52N2 M228T clone 1569, 0.745.
Regarding `O=CCc1ccccc1` [phenyl acetaldehyde], the odorant receptor activation was 0.94 in the assay on OR52B2 clone 1210; 1.08 in the assay on OR52B4 clone 1508; 1.19 in assay [1]; 1.31 in the assay on OR52D1 clone 1164; 1.14 in the assay on OR52E1 clone 1113; 0.808 in assay [2]. The odorant receptor activation in assay [3] was 1.18; in the assay on OR52E5 P234L clone 1124, 1.35; in the assay with OR52E6 clone 1196, 1.02; in the assay on OR52E8 clone 1154, 1.24; in the assay with OR52H1 clone 1702 it was 0.935; in the assay on OR52I1 clone 1521, 1.19. For the same molecule, the odorant receptor activation with OR52I2 T132M clone 1324 is 1.33; with OR52K1 clone 1163 it was 1.31; in the assay on OR52K2 clone 1211, 0.939; in assay [4] it was 1.26; in the assay with OR52L2 R169W clone 1117, 1.17; in the assay on OR52M1 clone 1143, 1.31. Also, the figures for the odorant receptor activation with OR52N1 clone 1191 and in the assay with OR52N2 M228T clone 1569 were 0.793 and 1.49, respectively.
As for `C=C(C)C1CC=CCC1` (stereo not given) [r-limonene], the odorant receptor activation with OR52B2 clone 1210 was 1.07 and 0.362; with OR52B4 clone 1508, 0.921 and 0.52 and 0.838; in assay [1] it was 0.895 and 0.315; in the assay on OR52D1 clone 1164 it was 1.13 and 0.392; in the assay with OR52E1 clone 1113, 1.04 and 0.856; in assay [2], 0.833 and 0.388. The odorant receptor activation is 1.07 in assay [3]; 0.749 with OR52E5 P234L clone 1124; 1.12 and 0.536 with OR52E6 clone 1196; 1.11 and 0.468 in the assay with OR52E8 clone 1154; 0.833 with OR52H1 clone 1702; 1.19 and 1.26 and 0.971 in the assay on OR52I1 clone 1521. Besides, the odorant receptor activation with OR52I2 T132M clone 1324 was 0.948 and 0.961; with OR52K1 clone 1163, 0.964 and 0.363; with OR52K2 clone 1211, 1.14 and 0.533; in assay [4], 1.09; in the assay with OR52L2 R169W clone 1117, 0.913; in the assay on OR52M1 clone 1143, 0.908 and 0.309. The odorant receptor activation was 1.02 and 0.486 in the assay on OR52N1 clone 1191; 0.938 in the assay with OR52N2 M228T clone 1569.
